Measurements from patent publication US7319090B2, “Methods of treating cerebral ischemia” (University of North Carolina at Chapel Hill, priority 2002, dated 2008).
Part of at least one peptide drawing is inferred or uncertain, most often the ends. Where a SMILES comes first, the peptide text is derived from it. [ ]: non-standard residue; d: D form. Ala(indol-4-yl) = N[C@@H](Cc1cccc2[nH]ccc12)C(=O)O; Tle = CC(C)(C)[C@H](N)C(=O)O; dOrn = NCCC[C@@H](N)C(=O)O

Legend:
Assay type in all cases: in vivo, rat
Sprague-Dawley rats [1] = experiment: Behavioral thermoregulation in a temperature gradient (selected Ta, core temperature, motor activity) after NT77
Method: Male rats of the Sprague-Dawley strain at 60 days of age were obtained from Charles River Laboratories (Raleigh, N.C.). The animals were housed individually in acrylic cages lined with wood shavings at an ambient temperature (Ta) of 22° C., relative humidity of 50%, and a 12 hour light:12 hour dark photoperiod (lights were turned on at 6 a.m. and turned off at 6 p.m.). Core temperature and motor activity were monitored in undisturbed rats using radio telemetry (Data Sciences International, St. Paul, Minn.). Details of the telemetry system are described in Gordon, C. J., 24-hour control of body temperature in the rat: I. Integration of behavioral and autonomic effectors, Am. J. Physiol. 267, […]-[…], 1994. Briefly, rats were anesthetized with sodium pentobarbital (50 mg/kg; intraperitoneally) and an incision was made for the implantation of the transmitter (TAIOTA-F40) into the abdominal cavity. The abdominal muscle was sutured and the skin was closed with wound clips. Following surgery, rats were administered a penicillin antibiotic (30,000 units; intramuscularly) and analgesic (buprenorphine; 0.03 mg/kg; subcutaneously). The rats were allowed at least 10 days of recovery before testing. The behavioral thermoregulatory response to NT77 was assessed by measuring selected ambient temperature (Selected Ta) of the unrestrained rats when housed in a temperature gradient (Gordon, C. J., 24-hour control of body temperature in the rat: I. Integration of behavioral and autonomic effectors, Am. J. Physiol. 267, […]-[…], 1994). Rats were placed in a temperature gradient and allowed to behaviorally select from a range of ambient temperatures (Ta) while core temperature (Tc) was monitored by radiotelemetry. Selected Ta, core temperature (Tc), and motor activity were monitored at 1 minute intervals. The gradient consisted of a wire-mesh cage placed inside a copper tube heated at one end and cooled at the other end with recirculating water baths. The range of ambient temperatures in the gradient varied from 15° C. to 38° C. The rat could move about in the 2 m-long gradient and select along a near linear change in Ta. Selected Ta was measured by photocells positioned at 10 cm intervals that detected the position of the rat in the gradient and automatically compared the position to the air temperature measured by thermocouples placed immediately outside the wire-mesh cage. Motor activity was calculated by measuring the change in position of the rat in the gradient at 1 minute intervals. Food and water were provided ad libitum in the middle of the gradient. Air was continually circulated through the gradient and a strip of low voltage lights illuminated the interior of the gradient on a 12 hour light:12 hour dark photoperiod set at the same time as that of the animal facility. A naive rat was placed in the gradient in the afternoon of the day before injection and was allowed to adapt overnight to the gradient prior to testing. The following day the rat was removed from the gradient at 10 AM and injected intraperitoneally with saline or with 5.0 mg/kg NT77 (0.1 ml/100 g body weight). The rat was immediately placed back in the middle of the gradient and left undisturbed until the next morning. The rat was out of the gradient for as little time as possible and injection required less than 1.0 minute. The behavioral and core temperature data were recorded at 1 minute intervals throughout the experiment. Mean body weight of the rats when placed in the gradient was 489 g. For statistical analysis, the core temperature and selected Ta data from the behavioral studies were averaged into thirty bins. […] Significant interactions with p<0.05 were followed with a Tukey's test to assess significance at specific time points. The core temperature, oxygen consumption, and heat loss data were analyzed at selected time intervals following injection of saline and NT77 with repeated measures ANOVA.

Sprague-Dawley rats [2] = experiment: Metabolism and heat loss in a direct calorimeter after NT77
Method: Oxygen consumption and dry heat loss were measured in naive rats implanted with radiotransmitters and housed in a direct calorimeter. The internal dimensions of the calorimeter were 30.5 cm×30.5 cm×30.5 cm. The calorimeter was used to measure the rate of dry heat loss (i.e., thermal conductance) from the rats using thermoelectric sensors in the calorimeter walls. The calorimeter was housed inside a temperature-controlled chamber maintained at 23.5° C. The inside of the calorimeter was dimly illuminated with LED lights (total power=0.2 Watts).
A wire mesh lid was placed over the cage and two telemetry receiver wands (Data Sciences, model RLA 3000) were placed over the top of the cage to detect the telemetry signal.
A mass flow controller was used to meter dry air at a constant flow rate (2.7 liters/minute; STP) into the calorimeter. A fraction of the air leaving the chamber was dried and passed through an oxygen analyzer (Applied Electrochemistry) to measure the percent oxygen. Metabolic rate of the rat was estimated by measuring the oxygen consumption. The change in percent oxygen before and after passing through the calorimeter was multiplied by the flow rate of air into the chamber to calculate metabolic rate in dimensions of ml O2/(min kg). The calorimeter was calibrated by burning a small lamp alcohol lamp containing 100% ethanol inside the calorimeter for several hours. The change in weight of the lamp was used to determine the expected rate of oxygen consumption assuming complete and steady combustion of the ethanol. The rate of dry heat loss in the calorimeter was calibrated with a precision resistor that was heated to a specific voltage with a calibrated power source. Percent oxygen, dry heat loss, air flow rate, and calorimeter temperature were monitored at 1 minute intervals by a data acquisition system (Dianachart PC acquisitor). Dry thermal conductance in dimensions of Watts/° C. (W/C) was calculated by dividing the value of dry heat loss at 1 minute intervals by the difference between core and ambient temperature. Thermal conductance is a measure of facility of heat transfer (i.e., heat loss) from the rat and provides information on the peripheral vasomotor state of the animal (Gordon, C. J., Temperature Regulation in Laboratory Rodents, New York:Cambridge University Press, 1993).
A naive rat was placed in the wire-mesh cage which was then placed inside the calorimeter at approximately 9 a.m. The rat was allowed to acclimate to the calorimeter for 115 minutes. Due to drift of the signal of the oxygen analyzer it was necessary to periodically monitor the percent oxygen of the inflowing air. […] At 120 minutes after placement in the calorimeter, the rat was quickly removed from the system and injected intraperitoneally with either sterile saline or 5.0 mg/kg NT77. The rat was quickly placed back into the chamber and the door sealed. At this time, the percent oxygen of air leaving the calorimeter was shunted to the oxygen analyzer. After 115 minutes, the percent oxygen of the inflowing air was measured for another 5 minutes for calibration purposes but the rat was not disturbed. After another 115 minutes, the rat was removed from the calorimeter and weighed. The mean weight between entering and leaving the calorimeter was used in the calculation of metabolic rate.
For statistical analysis, the core temperature and selected Ta data from the behavioral studies were averaged into thirty bins. […] Significant interactions with p<0.05 were followed with a Tukey's test to assess significance at specific time points. The core temperature, oxygen consumption, and heat loss data were analyzed at selected time intervals following injection of saline and NT77 with repeated measures ANOVA.

[3] = tested on: rats after asphyxial cardiac arrest; experiment: Malondialdehyde level in the hippocampus after asphyxial cardiac arrest (NT77); conditions: 24 hours after asphyxial cardiac arrest; NT77 10 mg/kg
[4] = tested on: rats after asphyxial cardiac arrest; experiment: Asphyxial cardiac arrest in rats: neurological outcome (NDS, Morris Water Maze) after NT77; conditions: NT77 10 mg/kg thirty minutes after ROSC

CC(C)C[C@H](NC(=O)[C@@H](NC(=O)[C@H](Cc1cccc2[nH]ccc12)NC(=O)[C@@H]1CCCN1C(=O)[C@@H](CCCN)NC(=O)[C@@H](N)CCCNC(=N)N)C(C)(C)C)C(=O)O [NT77] (H-R[dOrn]P[Ala(indol-4-yl)][Tle]L-OH)
time of recovery of core temperature from nadir to control levels (Sprague-Dawley rats [1]; 5.0 mg/kg i.p.): 4 h
time of recovery of selected Ta from nadir to control levels (Sprague-Dawley rats [1]; 5.0 mg/kg i.p.): 90 min
time rats remained hypothermic (Sprague-Dawley rats [1]; 5.0 mg/kg i.p.): 6 h
Δ core temperature nadir relative to value before injection (Sprague-Dawley rats [1]; 5.0 mg/kg i.p., by 1.5 hours after injection): 3.5 °C
core temperature nadir (Sprague-Dawley rats [1]; 5.0 mg/kg i.p., by 90 minutes after injection): 34 °C
selected Ta nadir (Sprague-Dawley rats [1]; 5.0 mg/kg i.p., by one hour after injection): 16 °C
mean selected Ta within 30 minutes after injection (Sprague-Dawley rats [1]; 5.0 mg/kg i.p., decreased from 29° C.): 19 °C
core temperature within 30 minutes after injection (Sprague-Dawley rats [1]; 5.0 mg/kg i.p., decreased from 37.5° C.): 34 °C
type of hypothermic response elicited (conclusion) (Sprague-Dawley rats [1]; systemic administration): regulated hypothermic response
duration of steady elevation of thermal conductance after injection (Sprague-Dawley rats [2]; 5.0 mg/kg i.p.): approximately 1 hour
time thermal conductance remained above control levels after dosing (Sprague-Dawley rats [2]; 5.0 mg/kg i.p.): ~2 h
oxygen consumption below that of rats dosed with saline (Sprague-Dawley rats [2]; 5.0 mg/kg i.p., 30 minutes after NT77): 30%
oxygen consumption below that of rats dosed with saline (Sprague-Dawley rats [2]; 5.0 mg/kg i.p., by 1 hour after injection): 20%
average decrease of core temperature (Sprague-Dawley rats [2]; 5.0 mg/kg i.p., over a 1 hour period after dosing, calorimeter 23.5° C.): 3 °C
heat loss (Sprague-Dawley rats [2]; first 20 minutes after dosing): relatively little change
levels of MDA in the hippocampus versus control and forced brief hypothermia groups [3]: markedly lower
neurological outcome (NDS at 72 hours, MWM days 10-14) [4]: improved neurological outcome
